From the supplement of paper PMC11732987, “Enantioselective OTUD7B fragment discovery through chemoproteomics screening and high-throughput optimisation” (Communications Chemistry, 2025)
The list shows a part of the results. The data scatter; read single values as rough.

Experiments:
[1] = compound: ClCC(=O)N[C@@H]1CCCc2ccccc12; test: log2 mean competition ratio of IA-DTB cysteine labelling (DMSO/compound) (log2 ratio); higher = stronger cysteine engagement by compound; conditions: treatment time: 4 h, cell line lysate: HEK293T
Method: (§1)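 IA-DTB competitive cysteine chemoproteomics in HEK293T RIPA lysate. Lysates were treated with compound 29 or 30 at 50 or 200 µM for 4 h, then IA-DTB (500 µM, 1 h), trypsin-digested, NeutrAvidin-enriched and analysed by diaPASEF. Competition ratio = intensity DMSO / intensity compound (n=4 treated, n=64 DMSO); binding: mean log2 CR ≥ 1 and p ≤ 0.05 plus QC filters. Target is the cysteine site.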

[2] = compound: ClCC(=O)N[C@H]1CCCc2ccccc12; test: as above; conditions: treatment time: 4 h, cell line lysate: HEK293T
Method: as §1

| Target | log2 mean competition ratio ([1]; 50 µM) | log2 mean competition ratio ([1]; 200 µM) | log2 mean competition ratio ([2]; 50 µM) | log2 mean competition ratio ([2]; 200 µM) |
| --- | --- | --- | --- | --- |
| MINDY1 C115 (UniProt Q8N5J2) | 0.244 | 0.201 | 0.217 | -0.0364 |
| MMS19 C760 (UniProt Q96T76) | 0.132 | 0.0343 | -0.0597 | -0.0371 |
| MPP7 C462 (UniProt Q5T2T1) | 0.425 | 0.0192 | -0.47 | -0.519 |
| MIA3 C1486 (UniProt Q5JRA6) | -0.0102 | -0.0645 | 0.34 | 0.0803 |
| MCUB C147 (UniProt Q9NWR8) | 0.05 | -0.0741 | 0.333 | 0.0527 |
| MED16 C539 (UniProt Q9Y2X0) | 0.138 | -0.168 | 0.132 | 0.0433 |
| MFN2 C390 (UniProt O95140) | -0.277 | 0.418 | -0.165 | 0.392 |
| MKI67 C1843 (UniProt P46013) | -0.266 | 0.0167 | 0.164 | 0.0459 |
| MIS18A C231 (UniProt Q9NYP9) | 0.0736 | 0.169 | 0.595 | 0.186 |
| MMAA C184 (UniProt Q8IVH4) | -0.14 | 0.0193 | 0.113 | 0.144 |
| MLLT6 C820 | -0.191 | -0.141 | 0.0969 | -0.156 |
| MICAL1 C837 (UniProt Q8TDZ2) | -0.0392 | 0.0924 | 0.0169 | 0.161 |
| MERTK C640 (UniProt Q12866) | -0.451 | -0.439 | -0.361 | 0.204 |
| METTL13 C652 (UniProt Q8N6R0) | -0.468 | -0.0326 | -0.647 | -0.161 |
| MDN1 C3263 (UniProt Q9NU22) | 0.116 | -0.0623 | 0.285 | -0.0553 |
| MRPL12 C45 (UniProt P52815) | 0.0123 | -0.0307 | 0.175 | 0.0936 |
| MED23 C1090 (UniProt Q9ULK4) | 0.0378 | -0.0466 | -0.0291 | -0.0745 |
| MKNK1 C101 (UniProt Q9BUB5) | -0.0953 | -0.297 | 0.419 | 0.0583 |
| MOB4 C119 (UniProt Q9Y3A3) | -0.308 | 0.0494 | -0.15 | -0.129 |
| MMS22L C121 (UniProt Q6ZRQ5) | 0.186 | 0.0119 | 0.231 | -0.0299 |
| MKI67 C1981(C2464) (UniProt P46013) | -0.159 | -0.144 | -0.148 | -0.12 |
| MIEF2 C233 | -0.0362 | -0.0611 | 0.06 | 0.00812 |
| MIF C81 (UniProt P14174) | -0.0952 | 0.247 | -0.643 | -1.73 |
| MEX3A C135 (UniProt A1L020) | -0.629 | 0.299 | -0.0815 | 0.103 |

A run of entries of the results above:

| Target | log2 mean competition ratio ([1]; 50 µM) | log2 mean competition ratio ([1]; 200 µM) | log2 mean competition ratio ([2]; 50 µM) | log2 mean competition ratio ([2]; 200 µM) |
| --- | --- | --- | --- | --- |
| MINDY1 C115 (UniProt Q8N5J2) | 0.244 | 0.201 | 0.217 | -0.0364 |
| MMS19 C760 (UniProt Q96T76) | 0.132 | 0.0343 | -0.0597 | -0.0371 |

Next part

| Target | log2 mean competition ratio ([1]; 50 µM) | log2 mean competition ratio ([1]; 200 µM) | log2 mean competition ratio ([2]; 50 µM) | log2 mean competition ratio ([2]; 200 µM) |
| --- | --- | --- | --- | --- |
| METTL7B C96 (UniProt Q6UX53) | -0.0227 | 0.216 | -0.312 | 0.158 |
| MDN1 C3985 (UniProt Q9NU22) | 0.149 | 0.218 | 0.0177 | 0.148 |
| MDN1 C1394 (UniProt Q9NU22) | -0.134 | -0.238 | -0.106 | 0.0283 |
| MDK C61 (UniProt P21741) | 0.0717 | 0.471 | -0.0213 | 0.321 |
| METTL16 C276 (UniProt Q86W50) | 0.177 | -0.291 | 0.186 | -0.218 |
| MKI67 C1285 (UniProt P46013) | 0.0547 | 0.13 | 0.212 | 0.217 |
| MED25 C429 (UniProt Q71SY5) | 0.437 | 0.0121 | -0.147 | -0.0858 |
| MON1B C297 (UniProt Q7L1V2) | 0.0457 | 0.335 | 0.1 | 0.23 |
| MOB3B C87 (UniProt Q86TA1) | 0.00583 | 0.133 | -0.0721 | 0.295 |
| MED22 C112 (UniProt Q15528) | -0.238 | 0.0345 | -0.243 | 0.312 |
| MGA C2241 (UniProt Q8IWI9) | 0.173 | 0.259 | 0.134 | 0.334 |
| MPP2 C468 | -0.287 | 0.0781 | -0.668 | -0.239 |
| MLXIP C8 (UniProt Q9HAP2) | -0.0189 | 0.0382 | -0.144 | 0.388 |
| MRM2 C79 (UniProt Q9UI43) | 0.136 | 0.0688 | 0.737 | 0.192 |
| MELK C413 (UniProt Q14680) | -0.154 | -0.0191 | 0.0738 | 0.0929 |
| MRM1 C182 (UniProt Q6IN84) | -0.05 | 0.117 | -0.158 | 0.11 |
| MND1 C147 (UniProt Q9BWT6) | 0.282 | 0.0231 | 0.258 | 0.0122 |
| MMTAG2 C179 (UniProt Q9BU76) | 0.0223 | -0.101 | -0.12 | -0.102 |
| MDH2 C285 (UniProt P40926) | -0.246 | -0.101 | -0.284 | 0.304 |
| MDN1 C2158 (UniProt Q9NU22) | -0.0337 | 0.0724 | 0.0306 | 0.000468 |
| MIS12 C53 (UniProt Q9H081) | -0.206 | -0.193 | -0.468 | -0.209 |
| MGRN1 C293 (UniProt O60291) | -0.056 | -0.113 | 0.157 | -0.00295 |
| MED13 C1375 (UniProt Q9UHV7) | -0.519 | -0.145 | -0.372 | -0.0434 |
| MDN1 C95 (UniProt Q9NU22) | 0.529 | 0.233 | 0.756 | 0.195 |
